Our source for the binding values is paper PMC12435150.

The chains behind the UniProt entries cited, without tags or fusion partners. Residues count along the entry.
UniProt O89109: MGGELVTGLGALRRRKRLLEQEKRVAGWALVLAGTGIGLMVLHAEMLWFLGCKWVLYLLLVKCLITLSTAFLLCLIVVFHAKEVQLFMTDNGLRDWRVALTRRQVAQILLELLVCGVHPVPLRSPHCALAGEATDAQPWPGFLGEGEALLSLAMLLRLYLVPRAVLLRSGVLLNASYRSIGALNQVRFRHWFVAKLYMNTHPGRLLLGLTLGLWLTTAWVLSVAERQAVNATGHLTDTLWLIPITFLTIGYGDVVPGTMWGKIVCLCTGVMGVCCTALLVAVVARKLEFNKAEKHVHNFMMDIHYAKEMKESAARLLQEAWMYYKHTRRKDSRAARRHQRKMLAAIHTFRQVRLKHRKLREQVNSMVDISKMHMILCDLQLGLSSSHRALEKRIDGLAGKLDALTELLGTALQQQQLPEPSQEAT
UniProt Q96D31: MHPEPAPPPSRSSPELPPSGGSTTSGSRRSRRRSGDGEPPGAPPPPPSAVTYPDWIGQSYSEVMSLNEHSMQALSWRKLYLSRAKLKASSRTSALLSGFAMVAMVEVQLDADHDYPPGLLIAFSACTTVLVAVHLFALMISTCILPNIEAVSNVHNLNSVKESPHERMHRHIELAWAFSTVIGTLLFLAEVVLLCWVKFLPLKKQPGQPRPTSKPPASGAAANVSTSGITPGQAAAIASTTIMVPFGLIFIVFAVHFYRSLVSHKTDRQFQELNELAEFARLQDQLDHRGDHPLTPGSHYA
UniProt Q13586, residues 23-685: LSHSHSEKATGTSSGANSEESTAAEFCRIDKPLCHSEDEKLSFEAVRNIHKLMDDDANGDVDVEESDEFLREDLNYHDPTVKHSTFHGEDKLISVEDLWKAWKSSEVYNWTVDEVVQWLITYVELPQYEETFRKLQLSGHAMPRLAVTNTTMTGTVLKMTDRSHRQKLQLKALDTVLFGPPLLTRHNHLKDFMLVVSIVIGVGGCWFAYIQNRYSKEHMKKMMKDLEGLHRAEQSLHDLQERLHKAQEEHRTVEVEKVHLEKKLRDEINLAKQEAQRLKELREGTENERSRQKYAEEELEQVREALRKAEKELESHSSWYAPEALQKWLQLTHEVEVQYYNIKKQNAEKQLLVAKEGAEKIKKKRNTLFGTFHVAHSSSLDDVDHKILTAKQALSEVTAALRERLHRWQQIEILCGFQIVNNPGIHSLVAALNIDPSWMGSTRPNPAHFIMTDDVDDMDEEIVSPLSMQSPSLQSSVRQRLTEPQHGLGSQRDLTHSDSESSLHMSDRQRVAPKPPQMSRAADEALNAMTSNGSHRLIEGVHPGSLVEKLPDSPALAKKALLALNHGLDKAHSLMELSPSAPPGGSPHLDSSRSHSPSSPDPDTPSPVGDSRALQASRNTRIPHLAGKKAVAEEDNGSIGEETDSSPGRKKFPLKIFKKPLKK

For assay [1], the target named is KCa3.1-GFP-myc (cell line not stated for the experiment) (UniProt O89109). Kind of assay: co-IP; co-IP of KCa3.1 (cells with KCa3.1-GFP-myc, NP-40 lysis buffer, anti-GFP or anti-myc on Dynabeads Protein G); cell line and antibody not stated for these experiments (Figure S6A, C, D).
For assay [2], the target named is KCa3.1-GFP-myc (in HEK293 cells) (UniProt O89109). Kind of assay: co-IP; HEK293 stably expressing KCa3.1-GFP-myc against non-transfected cells; NP-40 lysis buffer; anti-GFP on Dynabeads Protein G overnight at 4°C; blot with anti-STIM1; basal and after 2 uM thapsigargin and calcium re-addition (SOCE activated).

No constants are given. Whether binding was seen depends on the method and setting. Binding seen in cells or lysates may run through a third protein. Some binding calls cover weakened binding; strength is not graded here.

For the substance Orai1 (from UniProt Q96D31 1-301), in assay [1], the binding entry was “no binding”.
As to “STIM1 (in HEK293 cells) (from UniProt Q13586 23-685)”, the binding entry in assay [2] is reported as “binds”.
